# Results reported in the supplement of paper PMC12823440, “Inhibitors supercharge kinase turnover through native proteolytic circuits” (Nature, 2025).
# By UniProt entry, the sequences of proteins in these tests, tags left out. Where a name states a change or a piece, a line headed by the entry shows the natural chain unless it says otherwise.
# UniProt Q9Y616: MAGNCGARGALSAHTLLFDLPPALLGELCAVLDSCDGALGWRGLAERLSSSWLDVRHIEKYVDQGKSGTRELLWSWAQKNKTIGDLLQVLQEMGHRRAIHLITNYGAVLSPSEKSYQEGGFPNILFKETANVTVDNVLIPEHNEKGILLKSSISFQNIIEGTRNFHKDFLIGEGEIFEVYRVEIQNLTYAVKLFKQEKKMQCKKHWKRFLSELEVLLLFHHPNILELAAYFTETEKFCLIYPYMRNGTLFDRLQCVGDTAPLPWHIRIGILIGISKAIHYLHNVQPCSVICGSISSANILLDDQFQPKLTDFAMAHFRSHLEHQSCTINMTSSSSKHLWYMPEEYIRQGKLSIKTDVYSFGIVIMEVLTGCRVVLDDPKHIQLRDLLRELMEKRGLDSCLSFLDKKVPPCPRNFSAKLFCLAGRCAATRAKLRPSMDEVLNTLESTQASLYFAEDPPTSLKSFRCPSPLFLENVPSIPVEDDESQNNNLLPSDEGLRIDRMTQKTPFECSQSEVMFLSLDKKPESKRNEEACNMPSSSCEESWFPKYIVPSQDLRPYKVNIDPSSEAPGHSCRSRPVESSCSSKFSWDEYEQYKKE
# Where a name gives a salt, the structure may show the parent alone. Some of the results follow. The calls rarely recur for the same compound in another form.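 In K562 cells expressing nanoluciferase-fused kinases, luminescence was recorded at 4 h intervals between 2 and 18 h, normalized as percent of control with DMSO at 100% and a positive control at 0%. A significant (2 sigma) signal drop marks a time point as decreased. The authors' rule for a hit is not shown and takes in more than the number of time points.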
# Target: IRAK3 (UniProt Q9Y616)
# Assay: kinase-Nluc reporter destabilization hit call (1 = scored as downregulated) (binary); higher = compound decreases kinase abundance
# Conditions: 2.5 µM; K562; 2-18 h
row,SMILES,kinase-Nluc reporter destabilization hit call
1,Nc1nc(Nc2ccc(S(N)(=O)=O)cc2)nn1C(=O)c1c(F)cccc1F,inactive: 0
2,CCOc1cc2ncc(C#N)c(Nc3ccc(F)c(Cl)c3)c2cc1NC(=O)/C=C/CN(C)C [Pelitinib],inactive: 0
3,Nc1ncnc2c1c(-c1cnc3[nH]ccc3c1)nn2C1CCCC1,inactive: 0
4,CCN(CC)CCNC(=O)c1c(C)[nH]c(/C=C2\C(=O)Nc3ccc(F)cc32)c1C [Sunitinib],inactive: 0
5,C=CC(=O)Nc1cc2c(Nc3ccc(F)c(Cl)c3)ncnc2cc1OCCCN1CCOCC1 [Canertinib (dihydrochloride)],inactive: 0
6,Cc1[nH]c(/C=C2\C(=O)Nc3ccc(F)cc32)c(C)c1C(=O)NC[C@H](O)CN1CCOCC1,inactive: 0
7,Cc1cc(Nc2cc(N3CCN(C)CC3)nc(/C=C/c3ccccc3)n2)n[nH]1 [ENMD-2076 (Tartrate)],inactive: 0
8,O=C(Nc1cccc(Nc2nccc(Nc3cccc(C(F)(F)F)c3)n2)c1)C1CC1 [Aurora kinase inhibitor-3],inactive: 0
9,CN1CCN(c2ccc3nc(-c4c(N)c5c(F)cccc5[nH]c4=O)[nH]c3c2)CC1 [Dovitinib],inactive: 0
10,O=C1NCCc2[nH]c(-c3ccncc3)cc21,inactive: 0
11,CC1(C)CNc2cc(NC(=O)c3cccnc3NCc3ccncc3)ccc21 [Motesanib (Diphosphate)],inactive: 0
12,CC(=O)c1c(C)c2cnc(Nc3ccc(N4CCN(C(=O)CCCCCC(=O)N[C@H](C(=O)N5C[C@H](O)C[C@H]5C(=O)NCc5ccc(-c6scnc6C)cc5)C(C)(C)C)CC4)cn3)nc2n(C2CCCC2)c1=O,inactive: 0

# 2 compounds picked at random from those above, as already listed:
row,SMILES,kinase-Nluc reporter destabilization hit call
6,Cc1[nH]c(/C=C2\C(=O)Nc3ccc(F)cc32)c(C)c1C(=O)NC[C@H](O)CN1CCOCC1,inactive: 0
5,C=CC(=O)Nc1cc2c(Nc3ccc(F)c(Cl)c3)ncnc2cc1OCCCN1CCOCC1 [Canertinib (dihydrochloride)],inactive: 0
